Laboratory results as given in publication PMC5963671, “Hes1 inhibitor isolated by target protein oriented natural products isolation (TPO-NAPI) of differentiation activators of neural stem cells† †Electronic supplementary information (ESI) available. See DOI: 10.1039/c5sc03540f” (Chemical Science, 2015).
These are yes or no findings as the source states them, for the method shown. In cells and extracts the contact can be indirect. Some results given as binding are weak or reduced against the parent protein; the word gives no strength. Tags and fused reporters may be left off the sequences shown.

Target: HA- and Flag-tagged Hes1 (UniProt Q04666)
Assay: co-IP; HA- and Flag-tagged Hes1 co-expressed in C3H10T1/2 cells; IP with HA antibody beads, blots with each antibody; cells untreated or treated with agalloside (2) at 5 and 10 μM

binding: binds
B1: HA- and Flag-tagged Hes1 (protein, UniProt Q04666 1-281)
chain: MPADIMEKNSSSPVAATPASVNTTPDKPKTASEHRKSSKPIMEKRRRARINESLSQLKTLILDALKKDSSRHSKLEKADILEMTVKHLRNLQRAQMTAALSTDPSVLGKYRAGFSECMNEVTRFLSTCEGVNTEVRTRLLGHLANCMTQINAMTYPGQAHPALQAPPPPPPSGPGGPQHAPFAPPPPLVPIPGGAAPPPGSAPCKLGSQAGEAAKVFGGFQVVPAPDGQFAFLIPNGAFAHSGPVIPVYTSNSGTSVGPNAVSPSSGSSLTADSMWRPWRN
